In assay [1] the target is Bcr/Abl-R6 (Homo sapiens (Human)) (UniProt P11274). Kind of assay: self-association into tetramer; size exclusion chromatography, Superdex 75. Background: SEC sorts molecules by how far they enter the pores of the column.
Assay [2] shares this target. Kind of assay: self-association into tetramer; SEC, DLS.

No constants are given. Whether binding was seen depends on the method and setting. Some binding calls cover weakened binding; strength is not graded here.

Experimental findings from US20220127335A1, “TETRAMERIC PROTEIN SCAFFOLDS AS NANO-CARRIERS OF THERAPEUTIC PEPTIDES FOR TREATING CANCER AND OTHER DISEASES” (UNIVERSITY OF MARYLAND, BALTIMORE, priority 2019, published 2022) are described below.

B1: Bcr/Abl-R6 (other)
chain: MVDPVGFAEAWKAQFPDSEPPRMELRSVGDIEQELERAKASIRRLEQEVNQERFRMIYLQTLLAKEKKSYDRRRRRRR
notes: Negative control scaffold without the PMI graft: Bcr/Abl tetramerization domain with C-terminal R6; Chemically synthesized; tetramer in aqueous buffer
Turning to B1, the binding entry in assay [1] and in assay [2] was “binds” each time.
